Legend:
[1] = Photoluminescence emission measurements in 2-methyl-THF solution; format: physicochemical; details: emission maximum, room temperature, ≈10^−5 mol/l in 2-methyl-THF
[2] = Absolute photoluminescence quantum yield and FWHM in 2-methyl-THF solution; format: physicochemical; details: room temperature; for FWHM: full width at half maximum of emission peak, 2-methyl-THF; for Φ: photoluminescence quantum yield, degassed 2-methyl-THF solution
[3] = Photoluminescence quantum yield and CRI of spincoated emissive layer films

| Compound | λmax room T [1] [nm] | FWHM [2] [nm] | Φ [2] [%] | photoluminescence quantum yield Φ of EML ([3]; 60 nm film, red and blue emitter in high triplet energy host, spincoated on fused silica) [%] | color rendering index (CRI) of EML ([3]; derived from steady-state PL spectra of 60 nm film, red and blue emitter in host) |
| --- | --- | --- | --- | --- | --- |
| [Ir+3].[c-]1ccccc1-c1ccc2ccccc2n1.[c-]1ccccc1-c1ccc2ccccc2n1.[c-]1ccccc1-c1ccc2ccccc2n1 [[Ir(2-PhQ)3], reference compound] | 589 | 100 | 61 |  |  |
| [Ir(2-PhQ)2(DMC2)] | 611 | 116 | 62 |  |  |
| [Ir(2-PhQ)2(mc3)] | 624 | 115 | 62 |  |  |
| [Ir(2-PhQ)2(mc6)] | 624 | 115 | 56 |  |  |
| [Ir(M-PhQ)3] [reference compound] | 584 | 97 | 80 |  |  |
| [Ir(dmPhQ)2(acac)] [reference compound] | 616 | 72 | 72 | 72 | 64 |
| [Ir(n-hexPhQ)3] [reference compound] | 596 |  |  |  |  |
| [Ir(tButPhQ)3] [reference compound] | 593 |  |  |  |  |
